Assay results: US9139548B2, “Polycyclic derivatives, preparation process and pharmaceutical use thereof” (Jiangsu Hengrui Medicine Co., Ltd., priority 2012, dated 2015)
At least one read-out could not be matched to a standard name with certainty.

Test: Pharmacokinetics assay in rats after intragastric administration
Format: in vivo
Conditions: SD rats, 5 mg/Kg
Procedure: The compounds of the present invention were administered intragastrically to determine the drug concentration in plasma at different time points. The pharmacokinetic behavior of the compounds of the present invention was studied and evaluated in rats.
Compounds of Example 1, Example 2, Example 13 and Example 30
16 healthy adult SD rats were divided into 4 groups with 4 in each group, half male and half female. Rats were purchased from SINO-BRITSH SIPPR/BK LAB. ANIMAL LTD., CO, License number: SCXK (Shanghai) 2008-0016
The appropriate amount of test compounds were weighed and added to 0.5% sodium carboxymethyl cellulose to prepare a 0.5 mg/mL suspension using microwave.
After an overnight fast, the rats were administered intragastrically a dose of 5.0 mg/kg, at an administration volume of 10 mL/kg. Blood samples were taken before administration and after administration at different time points over 24.0 hours, using heparin as an anticoagulant. The separated plasma samples were stored at −20° C. The rats were fed 2 hours after administration. […]
The content of the different test compounds in rat plasma samples after the intragastric administration was determined by LC/MS/MS method. […] The blood sample was analyzed after protein precipitation was accomplished by the addition of methanol.

For `Cc1cc(O[C@@H]2COC[C@H]2O)cc(C)c1-c1cccc(COc2ccc3c(c2)OC[C@H]3CC(=O)O)c1` (mixture of isomers) [Example 13, 2-((S)-6-((4′-(((3R,4R)/(3S,4S)-4-Hydroxytetrahydrofuran-3-yl)oxy)-2′,6′-dimethylbiphenyl-3-yl)methoxy)-2,3-dihydrobenzofuran-3-yl)acetic acid], the “Apparent Distribution Volume Vz/F” value was 1.85 ± 0.37 L/kg.
